40 molecules from the supplement of paper PMC8256030 can be followed below.

Where “and” joins values, the source holds several entries; their conditions need not be identical. Equal entries are not always repeated. Structures can show the parent of a compound that is named as a salt. Some of the results follow. Repeats in this data set agree poorly, so a single value says little.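 HEK293T cells were given each compound shortly before transfection with a reporter in which red mCherry is followed by the SARS-CoV-2 frameshift element and then GFP in the −1 frame, so GFP appears only after frameshifting.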

The test system of one assay is SARS-CoV-2 -1 PRF reporter mCherry-FSE-GFP(-1). Kind of assay: mCherry (red) intensity as percent of control; higher = higher upstream reporter expression. The note with it: 10 µM; 24 h; HEK293T.
`CC(C)(C)NCC(O)COc1ccc(NC(=O)NC2CCCCC2)cc1` (stereo not given) [talinolol]: the mCherry came out at 72.7%.
Still for that read-out and setting: to `CCN(Cc1ccncc1)C(=O)C(CO)c1ccccc1` (stereo not given) [Tropicamide] belongs 100%; to `CC(N)C12CC3CC(CC(C3)C1)C2` (stereo not given) [rimantadine], 110%.
Turning to `CCCC(C(=O)OCCN(CC)CC)(c1ccccc1)c1ccccc1`, the mCherry came to 118%.
Still for that read-out and setting: to `CS(=O)(=O)NC(=O)CCC/C=C\C[C@H]1C(=O)C[C@@H](O)[C@@H]1/C=C/[C@@H](O)COc1ccccc1` [sulprostone] belongs 63.1%; to `Oc1ccc(Cl)cc1Sc1cc(Cl)ccc1O` [fenticlor], 107%.
As for `CCCCNc1cc(C(=O)O)cc(S(N)(=O)=O)c1Oc1ccccc1` [bumetanide], the mCherry was 101% and 98.6%.
On the same count and under the same terms, the value for `COc1cc2nc(N3CCN(C(=O)C4CCCO4)CC3)nc(N)c2cc1OC` (stereo not given) [Terazosin] was 83.2%; that for `C[N+](C)(C)CC(O)CC(=O)[O-]` (stereo not given) was 115%.
Still for that read-out and setting: to `C[Se]CCC(N)C(=O)O` (stereo not given) belongs 107%; to `CCCC1O[C@@H]2C[C@H]3[C@@H]4CCC5=CC(=O)C=C[C@]5(C)[C@H]4[C@@H](O)C[C@]3(C)[C@]2(C(=O)CO)O1` (stereo not given in full) [budesonide], 115%; to `O=C(O)CN1C[C@@H](c2cccs2)SC[C@H](N[C@@H](CCc2ccccc2)C(=O)O)C1=O` [temocaprilat], 76%.
For the molecule `CCCOC(=O)c1ccc(N)cc1` [risocaine], the mCherry amounted to 98.4%.
On the same count and under the same terms, to `CCCCCCNC(=O)n1cc(F)c(=O)[nH]c1=O` [carmofur] belongs 118%.
Take `O=[N+]([O-])c1ccc(O)c2ncccc12` [nitroxoline]: the mCherry was determined as 87.9%.
Still for that read-out and setting: to `NC(=O)NNc1ccccc1` [phenicarbazide] belongs 102%; to `Nc1ccc(S(=O)(=O)Nc2ccc(Cl)nn2)cc1` [sulfachlorpyridazine], 125%; to `CS(=O)(=O)c1ccc([C@H](O)[C@@H](COC(=O)CN)NC(=O)C(Cl)Cl)cc1` [Thiamphenicol glycinate], 50.9%.
Molecule `COc1ccc(CNc2nc(N3CCC[C@H]3CO)ncc2C(=O)NCc2ncccn2)cc1Cl` [avanafil] yielded a mCherry of 63.2%.
`CSC[C@H](NC(=O)[C@H](Cc1ccccc1)NC(=O)N1CCOCC1)C(=O)N[C@@H](CC1CCCCC1)[C@@H](O)C(=O)OC(C)C` [terlakiren] came in with a mCherry of 63.6%.
On the same count and under the same terms, to `CC1(C)O[C@@H]2C[C@H]3[C@@H]4C[C@H](F)C5=CC(=O)CC[C@]5(C)[C@H]4[C@@H](O)C[C@]3(C)[C@]2(C(=O)CO)O1` [fludroxycortide] belongs 146% and 121%.
In the case of `Cc1cc(CC(C)CC(C)(C)C)n(O)c(=O)c1` (stereo not given) [piroctone], the mCherry worked out at 97.4%.
The same measure, in the same setting: the value for `C[N+](C)(C)CCCCCC[N+](C)(C)C` [hexamethonium bromide] was 107%; that for `CCCCCCCCCCCCCCCC(=O)O[C@@H]1[C@@H](O)[C@@H](O)[C@@H]([C@H](NC(=O)[C@@H]2C[C@@H](CCC)CN2C)[C@H](C)Cl)O[C@@H]1SC` [Clindamycin palmitate·HCl] was 147%; that for `CC(=O)N[C@H]1[C@H](O[C@H]2[C@H](O)[C@@H](NC(C)=O)C(O)O[C@@H]2CO)O[C@H](CO)[C@@H](O)[C@@H]1O` (stereo not given in full) was 102%.
Still for that read-out and setting: to `Cc1cccn2c(=O)c(-c3nnn[nH]3)cnc12` [pemirolast] belongs 124%; to `O=C1[C@H]2CCCC[C@H]2C(=O)N1CCCCN1CCN(c2nsc3ccccc23)CC1` [perospirone], 95.6%.
The same measure, in the same setting: the value for `Cc1cc(NC(=O)/C(C#N)=C(\O)C2CC2)ccc1C(F)(F)F` [laflunimus] was 71.9%; that for `NC(=O)c1ccccc1O` [salicylamide] was 92.9%; that for `CN1CCCN=C1/C=C/c1cccc(O)c1` was 106%.
For `O=c1[nH]c2ccccc2n1C1CCN(CCCC(c2ccc(F)cc2)c2ccc(F)cc2)CC1` [pimozide], the mCherry is 81.2% and 94.9%.
Turning to `CC(=O)N[C@@H](CSC(C)=O)C(=O)O` [dacisteine], the mCherry stood at 89.1%.
In the case of `CN1CCC[C@H]1c1cccnc1`, the mCherry stood at 102%.
Same read-out and setting: to `COc1ccccc1N1CCN(CC(O)COc2cccc3ccccc23)CC1` (stereo not given) [naftopidil] belongs 92% and 77.8%.
Same read-out and setting: to `O=C(Nc1ccc([N+](=O)[O-])cc1Cl)c1cc(Cl)ccc1O` [niclosamide] belongs 96.9%; to `C=C1CC[C@H](O)C/C1=C/C=C1\CCC[C@]2(C)[C@@H]([C@H](C)CCCC(C)(C)O)CC[C@@H]12` [calcifediol], 107% and 88.1%; to `CCCC(CCC)C(=O)NCC(N)=O` [valrocemide], 105%.
On the same count and under the same terms, the value for `CC[C@H](C)C(=O)O[C@H]1C[C@H](O)C=C2C=C[C@H](C)[C@H](CC[C@@H](O)C[C@@H](O)CC(=O)O)[C@H]21` was 84.4%.
For `NC(=O)N/N=C/c1ccc([N+](=O)[O-])o1`, the mCherry amounted to 78.8%.
In the case of `COc1ccc(-n2nc(CCC(=O)N(C)O)cc2-c2ccc(Cl)cc2)cc1` [tepoxalin], the mCherry is 73.2%.

For the next assay the test system is unchanged. Kind of assay: percent effect, decrease of GFP/mCherry ratio (-1 PRF reporter) relative to controls; higher = stronger frameshift inhibition. The note with it: 10 µM; 24 h; HEK293T.
For `CC(C)(C)NCC(O)COc1ccc(NC(=O)NC2CCCCC2)cc1` (stereo not given) [talinolol], the percent effect was -6.89%.
Take `CCN(Cc1ccncc1)C(=O)C(CO)c1ccccc1` (stereo not given) [Tropicamide]: the percent effect was 1.04%.
In the case of `CC(N)C12CC3CC(CC(C3)C1)C2` (stereo not given) [rimantadine], the percent effect is -3.47%.
Same read-out and setting: the value for `CCCC(C(=O)OCCN(CC)CC)(c1ccccc1)c1ccccc1` was -5.68%; that for `CS(=O)(=O)NC(=O)CCC/C=C\C[C@H]1C(=O)C[C@@H](O)[C@@H]1/C=C/[C@@H](O)COc1ccccc1` [sulprostone] was -11.1%.
With `Oc1ccc(Cl)cc1Sc1cc(Cl)ccc1O` [fenticlor], the percent effect was -3.42%.
On to `CCCCNc1cc(C(=O)O)cc(S(N)(=O)=O)c1Oc1ccccc1` [bumetanide], for which the percent effect is -1.3% and -7.61%.
Same read-out and setting: the value for `COc1cc2nc(N3CCN(C(=O)C4CCCO4)CC3)nc(N)c2cc1OC` (stereo not given) [Terazosin] was -1.47%.
As for `C[N+](C)(C)CC(O)CC(=O)[O-]` (stereo not given), the percent effect is 7.28%.
`C[Se]CCC(N)C(=O)O` (stereo not given): the percent effect is -0.612%.
On the same count and under the same terms, to `CCCC1O[C@@H]2C[C@H]3[C@@H]4CCC5=CC(=O)C=C[C@]5(C)[C@H]4[C@@H](O)C[C@]3(C)[C@]2(C(=O)CO)O1` (stereo not given in full) [budesonide] belongs -1.26%.
On the same count and under the same terms, the value for `O=C(O)CN1C[C@@H](c2cccs2)SC[C@H](N[C@@H](CCc2ccccc2)C(=O)O)C1=O` [temocaprilat] was 4.12%.
On the same count and under the same terms, the value for `CCCOC(=O)c1ccc(N)cc1` [risocaine] was -3.67%; that for `CCCCCCNC(=O)n1cc(F)c(=O)[nH]c1=O` [carmofur] was 6.62%.
`O=[N+]([O-])c1ccc(O)c2ncccc12` [nitroxoline]: the percent effect was -1.74%.
The same measure, in the same setting: the value for `NC(=O)NNc1ccccc1` [phenicarbazide] was -3.04%.
Take `Nc1ccc(S(=O)(=O)Nc2ccc(Cl)nn2)cc1` [sulfachlorpyridazine]: the percent effect was -0.0939%.
In the case of `CS(=O)(=O)c1ccc([C@H](O)[C@@H](COC(=O)CN)NC(=O)C(Cl)Cl)cc1` [Thiamphenicol glycinate], the percent effect was -3.13%.
In the case of `COc1ccc(CNc2nc(N3CCC[C@H]3CO)ncc2C(=O)NCc2ncccn2)cc1Cl` [avanafil], the percent effect was -5.49%.
Consider `CSC[C@H](NC(=O)[C@H](Cc1ccccc1)NC(=O)N1CCOCC1)C(=O)N[C@@H](CC1CCCCC1)[C@@H](O)C(=O)OC(C)C` [terlakiren], for which the percent effect was -14.1%.
Take `CC1(C)O[C@@H]2C[C@H]3[C@@H]4C[C@H](F)C5=CC(=O)CC[C@]5(C)[C@H]4[C@@H](O)C[C@]3(C)[C@]2(C(=O)CO)O1` [fludroxycortide]: the percent effect is -0.435% and -8.5%.
The same measure, in the same setting: to `Cc1cc(CC(C)CC(C)(C)C)n(O)c(=O)c1` (stereo not given) [piroctone] belongs -3.27%.
Still for that read-out and setting: the value for `C[N+](C)(C)CCCCCC[N+](C)(C)C` [hexamethonium bromide] was -2.19%.
On the same count and under the same terms, to `CCCCCCCCCCCCCCCC(=O)O[C@@H]1[C@@H](O)[C@@H](O)[C@@H]([C@H](NC(=O)[C@@H]2C[C@@H](CCC)CN2C)[C@H](C)Cl)O[C@@H]1SC` [Clindamycin palmitate·HCl] belongs -5.88%; to `CC(=O)N[C@H]1[C@H](O[C@H]2[C@H](O)[C@@H](NC(C)=O)C(O)O[C@@H]2CO)O[C@H](CO)[C@@H](O)[C@@H]1O` (stereo not given in full), -0.174%.
Consider `Cc1cccn2c(=O)c(-c3nnn[nH]3)cnc12` [pemirolast], for which the percent effect turned out to be 2.94%.
With `O=C1[C@H]2CCCC[C@H]2C(=O)N1CCCCN1CCN(c2nsc3ccccc23)CC1` [perospirone], the percent effect was -3.57%.
Same read-out and setting: the value for `Cc1cc(NC(=O)/C(C#N)=C(\O)C2CC2)ccc1C(F)(F)F` [laflunimus] was -1.84%; that for `NC(=O)c1ccccc1O` [salicylamide] was -1.55%.
Consider `CN1CCCN=C1/C=C/c1cccc(O)c1`, for which the percent effect worked out at 0.449%.
Still for that read-out and setting: to `O=c1[nH]c2ccccc2n1C1CCN(CCCC(c2ccc(F)cc2)c2ccc(F)cc2)CC1` [pimozide] belongs -2.07% and -0.998%.
Take `CC(=O)N[C@@H](CSC(C)=O)C(=O)O` [dacisteine]: the percent effect was -2.43%.
In the case of `CN1CCC[C@H]1c1cccnc1`, the percent effect is -1.74%.
The same measure, in the same setting: to `COc1ccccc1N1CCN(CC(O)COc2cccc3ccccc23)CC1` (stereo not given) [naftopidil] belongs -1.16% and 3.1%; to `O=C(Nc1ccc([N+](=O)[O-])cc1Cl)c1cc(Cl)ccc1O` [niclosamide], -2.92%; to `C=C1CC[C@H](O)C/C1=C/C=C1\CCC[C@]2(C)[C@@H]([C@H](C)CCCC(C)(C)O)CC[C@@H]12` [calcifediol], 0.387% and -0.41%.
Still for that read-out and setting: the value for `CCCC(CCC)C(=O)NCC(N)=O` [valrocemide] was -4.84%; that for `CC[C@H](C)C(=O)O[C@H]1C[C@H](O)C=C2C=C[C@H](C)[C@H](CC[C@@H](O)C[C@@H](O)CC(=O)O)[C@H]21` was -4.58%.
As to `NC(=O)N/N=C/c1ccc([N+](=O)[O-])o1`, the percent effect is -4.27%.
`COc1ccc(-n2nc(CCC(=O)N(C)O)cc2-c2ccc(Cl)cc2)cc1` [tepoxalin]: the percent effect is -1.4%.
